According to paper PMC4898930:
No constants are given. Whether binding was seen depends on the method and setting. Binding seen in cells or lysates may run through a third protein. Some results given as binding are weak or reduced against the parent protein; the word gives no strength. Sequences can lack the tags named with a protein.

Chains of the proteins cited; added tags and fusions are not shown.
UniProt Q8BXK9: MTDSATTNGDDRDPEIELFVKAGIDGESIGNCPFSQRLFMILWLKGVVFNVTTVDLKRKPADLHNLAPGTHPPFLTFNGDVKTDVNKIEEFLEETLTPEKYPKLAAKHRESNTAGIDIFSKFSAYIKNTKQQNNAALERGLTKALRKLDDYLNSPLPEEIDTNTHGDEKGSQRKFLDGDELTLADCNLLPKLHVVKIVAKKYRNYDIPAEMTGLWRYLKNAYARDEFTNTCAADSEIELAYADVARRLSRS

Target: CLIC5 (in CL4 cells) (UniProt Q8BXK9)
Experiment: co-IP; CL4 cells transfected; immunoprecipitation with HA antibody, western blot to detect Myc-taperin

B1: Myc-taperin (protein, UniProt A2AI08 1-749)
chain: MAGLGRLDPGPRTVMPAWKREILERRRAKLAALSGGQGSGAAPDGPNERLVLAESLGPLSQNPFMRLESERRRGTRPAQQLLELYCRVPGVRTIRADNILIIESAPGFPPAVPPAAGIRAAEVVVYEAPQPGRVSRLLEKFDSPAAPCRRGSPERFRPALPQLPVASASAATRTPTNRSLAPASPVRLSQPAPPISPVPVAQRAGQRSACCEPAHPDGTAGPGARRSDFLQKTGSNSFTVHPRGLPRSAVNRSLSNGPMTQESPTGPANGLSGSPPVPGKWKPKVESKEPSLHPPPSPGTPSATSVGPPAFPAPSPASATPSQRQWVSSATSANDSFEIRPSSKPDMETIPIGDLQARALANLRVNSRNSFVLIPKRKAPGNYPLAGRQFEEPKGEVGWASQSQGLGSQLVSTVDGAPALEKSPLAAEMQWAVRKGACPRPAISDTDKCVRWQRPASPPPFLPATAEAEPAEGLGVPGLAKNGQEPVRPGLPVTFIDEVDSEEEAFQEAKLPSSAVGVPSQYHLHPARPGHTSELLNRGSNTFTVVPKRKPGTLQEPHLSQTNGQSQQGAEEQDAESLSGPHTTLENTLKKRYPTVHEIEVIGGYLALQKSCLIKAGSSRKKMKISFNDKSLHTTFEYPSESSLAQEEAEEEEEEEGEEDGEEEEVGPDSEKPFTVFLPRATFVSSVGPESSSGLSSYTPKHSMAFSKWQEQTLVQTPTDVELPPKEVMLTPASQNDLSDFRSEPALYF
Which binding does the source give for B1 here?
Its binding is “binds”.
